Reference: PMC4333378, “Human PrimPol is a highly error-prone polymerase regulated by single-stranded DNA binding proteins” (Nucleic Acids Research, 2014)

The chains behind the UniProt entries cited, without tags or fusion partners.
UniProt P15927: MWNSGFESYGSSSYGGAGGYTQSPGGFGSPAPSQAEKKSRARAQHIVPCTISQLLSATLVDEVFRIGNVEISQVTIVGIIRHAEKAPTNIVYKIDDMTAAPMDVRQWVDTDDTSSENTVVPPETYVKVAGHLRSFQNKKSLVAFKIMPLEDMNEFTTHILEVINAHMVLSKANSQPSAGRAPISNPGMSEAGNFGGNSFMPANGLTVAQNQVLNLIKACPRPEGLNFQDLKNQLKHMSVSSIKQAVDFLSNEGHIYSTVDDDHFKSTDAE

Molecular target: T1, PrimPol^FlagStrep (Strep-tagged human PrimPol) (human) (UniProt Q96LW4)
T1 sequence: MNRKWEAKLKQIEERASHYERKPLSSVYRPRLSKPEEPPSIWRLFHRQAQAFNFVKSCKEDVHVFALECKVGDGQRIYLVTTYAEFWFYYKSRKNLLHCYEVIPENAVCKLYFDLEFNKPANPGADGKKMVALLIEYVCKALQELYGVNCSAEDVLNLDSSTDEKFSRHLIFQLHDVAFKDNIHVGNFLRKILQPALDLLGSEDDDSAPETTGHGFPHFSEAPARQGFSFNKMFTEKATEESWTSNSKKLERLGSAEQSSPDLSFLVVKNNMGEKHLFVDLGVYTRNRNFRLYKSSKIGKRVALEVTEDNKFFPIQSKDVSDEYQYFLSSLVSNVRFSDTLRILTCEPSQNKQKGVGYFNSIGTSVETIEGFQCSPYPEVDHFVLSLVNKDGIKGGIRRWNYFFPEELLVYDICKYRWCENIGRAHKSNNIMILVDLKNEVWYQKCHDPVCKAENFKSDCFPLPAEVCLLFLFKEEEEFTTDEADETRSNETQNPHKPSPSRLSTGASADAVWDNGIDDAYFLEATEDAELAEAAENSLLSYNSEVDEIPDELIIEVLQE
Test: affinity purification with mass spectrometry; large-scale Strep-tactin affinity purification of Strep-tagged PrimPol from doxycycline-induced against non-induced Flp-In T-REx-293 lysate (150 mM NaCl, 30 mM Tris pH 7.4, 0.5% NP-40), desthiobiotin elution, gel slices, LC-MS/MS

binding: binds
Molecule: RPA32 (replication protein A subunit 2) (from UniProt P15927 1-270)

binding: binds
B1: mitochondrial single-stranded DNA binding protein (mtSSB) (protein, UniProt Q04837 17-148)
chain: ESETTTSLVLERSLNRVHLLGRVGQDPVLRQVEGKNPVTIFSLATNEMWRSGDSEVYQLGDVSQKTTWHRISVFRPGLRDVAYQYVKKGSRIYLEGKIDYGEYMDKNNVRRQATTIIADNIIFLSDQTKEKE

These are yes or no findings as the source states them, for the method shown. In cells and extracts the contact can be indirect. These calls come from enrichment with a bait or labelling near it, and not all partners need be listed. Tags and fused reporters may be left off the sequences shown. Each block holds one molecule with its values, some of them ahead of it.
